Structures were worked out from names or drawings and are uncertain.
Legend:
Type in all cases: cell-based
[1] = target: CCNE1 (Homo sapiens, UniProt P24864+P24941); assay: CCNE1 HIBIT PQ (protein quantification), degradation; conditions: for CCNE1 HIBIT PQ Max (%): Max = Maximum; for DC50: read-out: CCNE1 HIBIT PQ DC50, PQ = Protein Quantification
How it was run: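 For DC50 and maximal degradation, CCNE1 protein was quantified with a HiBiT assay in HEK293 cells carrying HiBiT-tagged CCNE1. Cells in EMEM with 10% FBS went into 384-well plates at 1.6×10⁵ cells/well in 50 uL, stayed overnight at 37° C and 5% CO₂, and then received compound for 6 hours. Readings were referenced to 0.1% DMSO-treated cells as the high control and culture medium only as the low control.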

Sequences of proteins named here, by UniProt entry; tags and fusion partners are left off.
UniProt P24864, whole entry: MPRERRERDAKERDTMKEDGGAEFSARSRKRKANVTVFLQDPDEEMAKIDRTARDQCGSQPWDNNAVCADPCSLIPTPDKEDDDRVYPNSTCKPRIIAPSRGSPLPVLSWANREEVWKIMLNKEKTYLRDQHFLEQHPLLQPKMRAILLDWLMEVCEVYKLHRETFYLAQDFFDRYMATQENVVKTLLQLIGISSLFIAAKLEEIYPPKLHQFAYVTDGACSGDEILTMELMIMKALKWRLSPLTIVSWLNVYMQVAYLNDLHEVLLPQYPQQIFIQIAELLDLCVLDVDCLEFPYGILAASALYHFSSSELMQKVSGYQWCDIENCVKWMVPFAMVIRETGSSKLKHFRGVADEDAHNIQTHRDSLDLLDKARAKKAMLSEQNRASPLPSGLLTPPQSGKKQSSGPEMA
UniProt P50750, whole entry: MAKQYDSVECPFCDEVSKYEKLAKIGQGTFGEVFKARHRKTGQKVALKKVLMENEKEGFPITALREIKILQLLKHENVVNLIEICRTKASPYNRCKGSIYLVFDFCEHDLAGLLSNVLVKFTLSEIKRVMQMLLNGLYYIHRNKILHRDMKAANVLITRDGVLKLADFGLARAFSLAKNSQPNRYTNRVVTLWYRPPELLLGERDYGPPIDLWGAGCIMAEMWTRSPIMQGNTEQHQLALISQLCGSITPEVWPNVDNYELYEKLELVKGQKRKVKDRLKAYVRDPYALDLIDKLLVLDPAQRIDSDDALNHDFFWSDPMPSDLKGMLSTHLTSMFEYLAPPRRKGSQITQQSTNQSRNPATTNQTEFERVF

[2] = target: CDK2 (Homo sapiens, UniProt P24941); assay: CDK2 HIBIT PQ (protein quantification), degradation; conditions: for CDK2 HIBIT PQ Max (%): Max = Maximum; for DC50: read-out: CDK2 HIBIT PQ DC50, PQ = Protein Quantification
How it was run: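 HEK293 cells bearing HiBiT-tagged CDK2 were cultured in DMEM containing 10% FBS, plated in 384-well plates at 1.6×10^5 cells/well in 50 uL, and kept overnight at 37° C and 5% CO2. Following 6 hours of compound exposure, each well received 20 μL of HiBiT reagent (Nano-Glo HiBiT lytic buffer, lytic substrate, LgBiT protein), and plates were shaken for 20 minutes at room temperature and then read on an EnVision, with 0.1% DMSO as the high control and medium only as the low control. DC50 and maximal degradation were calculated from these readings.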

[3] = target: CDK9 (Homo sapiens, UniProt P50750); assay: CDK9 HIBIT PQ (protein quantification), degradation
How it was run: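 HEK293 cells carrying HiBiT-tagged CDK9 were grown in DMEM with 10% FBS and seeded in 384-well plates at 1.6×10^5 cells/well in 50 uL, then incubated overnight at 37° C and 5% CO2. After compound treatment, CDK9 protein was measured with a HiBiT assay. High control was 0.1% DMSO-treated cells and low control was culture medium only. Maximal degradation, Dmax and DC50 were derived from these readings.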

Row | CCNE1 HIBIT PQ Max (%) [1] [%] | DC50 [1] [nM] | CDK2 HIBIT PQ Max (%) [2] [%] | DC50 [2] [nM] | CDK9 HIBIT PQ Max (%) ([3]; Max = Maximum) | DC50 ([3]; read-out: CDK9 HIBIT PQ DC50, PQ = Protein Quantification) [nM] | Structure (SMILES)
1 | 77 | 79.8 | 92 | 10.4 |  |  | CC(C)Oc1c(-c2cn[nH]c2)ncn2nc(Nc3ccc(S(=O)(=O)c4cccc(CN5CCN(c6ccc7c(N8CCC(=O)NC8=O)nn(C)c7c6)C(C(C)C)C5)c4)cc3F)nc12 (single isomer, unassigned) [108]
2 | 54 | 1.02 | 82 | 0.8 | 69 | 9.15 | CC(C)Oc1c(-c2cn[nH]c2)ncn2nc(NC3CCN(S(=O)(=O)c4cccc(NC5CN(Cc6ccc7c(c6)CN(C6CCC(=O)NC6=O)C7=O)C5)c4)CC3)nc12 (stereo not shown)
3 | 78 | 71.7 |  | 9.7 |  |  | CC(C)Oc1c(-c2cn[nH]c2)ncn2nc(Nc3ccc(S(=O)(=O)c4cccc(CN5CCN(c6ccc7c(N8CCC(=O)NC8=O)nn(C)c7c6)C(C(C)C)C5)c4)cc3F)nc12 (single isomer, unassigned) [109]
